This passage reports AC50 and cell number change results from PubChem BioAssay AID2685 (National Center for Advancing Translational Sciences (NCATS), 2010).

The other results are listed elsewhere or left out. Shown are side measurements of this screen, not its main read-out; they come without a call. The list favours compounds with an active or inconclusive main result. The note in brackets gives the kind of curve behind each potency; many fits are weak.

The test can be described thus: qHTS Assay for Lipid Storage Modulators in Drosophila S3 Cells.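 As to cell number change: cells counted by Cell Tracker Red CMTPX staining in the red channel.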 As to conditions: BODIPY lipid droplet fluorescence, 18-24 h; for cell number change: measured here: cell count max response, cells fed with added oleic acid. In outline: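 Laser-scanning cytometry quantifies lipid droplet accumulation (500–530 nm total intensity; droplet/cell object ratio) in oleic acid-fed (400 uM added) Drosophila S3 cells treated with a concentration series. 20 uM Triacsin C defined 100% inhibition.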

The mark [1] stands for this setting: measured here: lipid fluorescence (Fed channel) AC50, cells fed with added oleic acid.
The mark [2] stands for this setting: measured here: cell number channel AC50, cells fed with added oleic acid.

For `Nc1nc(-c2ccc(Cl)cc2)cc(C(F)(F)F)n1`, the AC50 under setting [1] was 6.51 µM [rising, single point]. Consider `O=C(COc1ccccc1)NC1CCN(Cc2ccccc2)CC1`, for which the cell number change was -13.4%. Consider `CSC1=C(C#N)C2(CCCC2)C(C#N)=C(N)N1`, for which the cell number change is -4.15%. Moreover, the AC50 under setting [1] is 0.00731 µM [rising, full curve, poor fit]. Regarding `COc1ccc(-n2c(SCC(=O)Nc3ccccc3C)nc(O)c(Cc3ccccc3)c2=O)cc1`, the cell number change is -16.7%. The AC50 under setting [1] was 1.46 µM [rising, full curve]. As to `COc1ccc(-c2nn(-c3ccccc3)cc2C(=O)NC2CC2)cc1`, the cell number change is -9.09%. The AC50 under setting [1] was 36.6 µM [rising, partial curve, poor fit]. Turning to `CCOc1ccc2c(C)c(Cl)c(=O)oc2c1`, the cell number change is 97.9%. The AC50 under setting [2] was 13 µM [rising, partial curve]. Turning to `O=C(CSc1ncnc2c1cnn2-c1ccccc1Cl)N1CCN(C(=O)c2ccco2)CC1`, the cell number change was -12.6%. Turning to `CCOc1cc(C(=S)N2CCOCC2)ccc1OC(=O)/C=C/c1ccc(OC)c(OC)c1`, the cell number change was -14.9%. Moreover, the AC50 under setting [1] is 0.146 µM [rising, partial curve]. Turning to `Cc1cc(C)c(S(=O)(=O)c2cccc(Cl)c2)c(=O)[nH]1`, the cell number change was -5.01%. Moreover, under setting [1], the AC50 is 0.82 µM [falling, full curve, poor fit].

Consider `O=C(c1cccn2c(=O)c3cc(Cl)ccc3nc12)N1CCN(Cc2ccc3c(c2)OCO3)CC1`, for which the AC50 under setting [1] is 6.51 µM [rising, single point]. Regarding `COc1cc(NC(=O)C2CCCCN2)ccc1OCC(C)C` (centres undefined), the cell number change is -39.9%. The AC50 under setting [2] is 0.058 µM [falling, full curve, poor fit]. For the same molecule, the AC50 under setting [1] was 0.0651 µM [falling, full curve, poor fit]. Consider `O=C(Cn1ccc([N+](=O)[O-])n1)c1ccccc1`, for which the cell number change turned out to be 17.7%. For the same molecule, the AC50 under setting [1] is 20.6 µM [rising, partial curve]. Take `CCc1cccc(C)c1NC(=O)CCCSc1nc2ccccc2s1`: the cell number change came out at 14.4%. Further, the half-maximal activity concentration (AC50) under setting [1] was 16.4 µM [rising, single point]. Consider `CN1CCN(NC(=O)c2ccc(Cl)c(S(=O)(=O)Nc3ccc(Cl)cc3)c2)CC1`, for which the cell number change was -29%. Also, the AC50 under setting [2] was 3.26 µM [falling, full curve, poor fit]. In addition, the AC50 under setting [1] was 2.59 µM [falling, full curve, poor fit]. Consider `CCN1C(=O)[C@H]2[C@@H](c3ccc(Cl)cc3)N3C(=O)CN(CC4CC4)C(=O)[C@@]3(C)[C@H]2C1=O`, for which the AC50 under setting [1] is 29.1 µM [rising, single point]. Regarding `O=C(Nc1nnc(SCc2ccc(F)cc2)s1)c1ccc2ncsc2c1`, the cell number change is 45.8%. Further, the AC50 under setting [2] is 8.2 µM [rising, partial curve]. Besides, the AC50 under setting [1] is 10.3 µM [rising, partial curve]. Take `CC(C)(C)c1ccc(-c2nnc(SCC(=O)O)n2N)cc1`: the cell number change was -6.33%. Moreover, the AC50 under setting [2] was 0.517 µM [falling, single point]. For the same molecule, the AC50 under setting [1] is 0.731 µM [falling, full curve, poor fit]. With `CCOc1ccc(N(CC(=O)NC2CCCC2)S(=O)(=O)c2c(C)[nH]c(=O)[nH]c2=O)cc1`, the cell number change was -26.7%. The AC50 under setting [2] is 0.0517 µM [falling, full curve, poor fit]. Further, the AC50 under setting [1] is 0.259 µM [falling, full curve, poor fit]. As for `COc1ccc(C(=O)Nc2ccc(OCC(F)(F)C(F)F)c(C(F)(F)F)c2)cc1OC`, the cell number change was 18.8%. The AC50 under setting [2] is 0.00411 µM [rising, full curve, poor fit].

Regarding `CCCC(=O)c1cc(F)c(N2CCN(CCC#N)CC2)cc1C`, the cell number change was -17.1%. Also, the AC50 under setting [1] was 5.8 µM [rising, partial curve].

For the molecule `Cc1cccc2sc(N(CCCN(C)C)C(=O)c3ccco3)nc12`, the cell number change was -15.8%. The AC50 under setting [1] was 0.82 µM [falling, single point]. As to `COc1ccc(S(=O)(=O)NC(C)C(=O)NC2CC2)cc1C` (centres undefined), the cell number change was -1.16%. Further, the AC50 under setting [1] is 23.1 µM [rising, single point].

On to `COC(=O)[C@@]1(Cc2ccc(F)cc2)[C@H]2c3cc(C(=O)N4CCCC4)n(CCc4ccc(O)c(O)c4)c3C[C@H]2CN1C(=O)c1ccccc1`, for which the cell number change was -32.8%. For the same molecule, under setting [2], the AC50 is 29.1 µM [falling, single point]. For the same molecule, the AC50 under setting [1] was 16.4 µM [falling, single point]. Consider `Cc1cc(C)cc(OCC(=O)Nc2ccc(N3CCCCC3)cc2)c1`, for which the cell number change came out at 36.5%. For the same molecule, the AC50 under setting [2] is 13 µM [rising, single point]. For the same molecule, the AC50 under setting [1] is 23.1 µM [rising, single point]. In the case of `COc1ccc(C(=O)COC(=O)/C=C/c2ccc(S(=O)(=O)Nc3cccc(S(N)(=O)=O)c3)cc2)cc1`, the cell number change was -27.4%. The AC50 under setting [1] is 7.31 µM [falling, partial curve]. Consider `O=CN1Cc2[nH]c3ccccc3c2N(c2ccc(Cl)cc2)C1=O`, for which the cell number change is -30.3%. The AC50 under setting [2] was 0.00411 µM [falling, full curve, poor fit]. In addition, the AC50 under setting [1] is 20.6 µM [falling, partial curve]. For the molecule `COc1ccccc1C(CNC(=O)C1COc2ccccc2O1)N1CCCC1` (centres undefined), the cell number change was -13.2%. For the same molecule, under setting [1], the AC50 was 8.2 µM [falling, partial curve]. On to `Cn1c(CNC(=O)c2ccccc2F)nnc1SCC(=O)Nc1nnc(C2CC2)s1`, for which the cell number change is -8.97%. Turning to `COc1cccc(OC)c1NC(=O)CN(C)S(=O)(=O)c1ccc2c(c1)OCCO2`, the cell number change worked out at 6.3%. The AC50 under setting [1] was 6.51 µM [falling, single point]. Turning to `CC(=O)Nc1ccc(NC(=O)C(c2ccccc2)c2ccccc2)cc1`, the cell number change was 28.3%. Also, the AC50 under setting [1] was 29.1 µM [falling, single point].

Turning to `Cc1ccc(S(=O)(=O)N2CCCCCC2)cc1C(=O)NCc1ccccn1`, the cell number change is 10%. On the same count and under the same terms, the figure for `Cc1cccc(C)c1OCC(=O)OCC(=O)c1ccc2c(c1)NC(=O)CO2` is 14.3%.

Consider `O=C(CSc1nnc(Cc2ccccc2)n1C1CCCCC1)N1CCOCC1`, for which the AC50 under setting [2] was 6.51 µM [falling, single point]. For `Cc1cc(C(=O)CN2C(=O)C(=O)N(Cc3ccco3)C2=O)c(C)n1CCc1ccccc1`, the cell number change was -17.7%. Further, the AC50 under setting [1] is 1.46 µM [falling, full curve]. Regarding `COc1ccnc2c1c(=O)n(Cc1ccccc1Cl)c(=O)n2C`, the cell number change is 3.06%. The AC50 under setting [1] was 5.17 µM [falling, full curve, poor fit]. `COc1ccc(CN2CCC(Oc3ccc(C(=O)N4CCCC4)cc3)CC2)c(F)c1`: the cell number change was determined as 7.03%.

Take `Cc1noc(C)c1CSc1ncnc2sc(C)c(C)c12`: the cell number change turned out to be 7.91%. In addition, the AC50 under setting [2] is 0.411 µM [rising, partial curve]. Take `N=c1c(C(=O)NCCc2ccccc2)cc2c(=O)n3ccccc3nc2n1CC1CCCO1` (centres undefined): the cell number change is -4.96%. Moreover, under setting [1], the AC50 is 6.51 µM [rising, single point]. Turning to `O=C(NCCCNC(=O)c1ccccn1)c1ccc(F)cc1`, the cell number change was determined as 1.32%. Turning to `COc1ccc(CNC(=O)c2cc3c(=O)n4ccccc4nc3n(CC3CCCO3)c2=N)cc1` (centres undefined), the cell number change was -0.357%. The half-maximal activity concentration (AC50) under setting [1] was 0.184 µM [rising, full curve, poor fit]. As for `COc1cc(NC(=O)Cc2cccc3ccccc23)c(C(=O)O)cc1OC`, the cell number change was determined as 30.2%. For the same molecule, the AC50 under setting [2] is 11.6 µM [rising, partial curve, poor fit]. Also, the AC50 under setting [1] was 3.66 µM [rising, full curve]. `CN(C)c1cc2c(cc1NS(=O)(=O)c1ccccc1)n(C)c(=O)n2C`: the cell number change is -4.76%.

As to `O=C(CN1CCCC1)Nc1cc(C(F)(F)F)cc(C(F)(F)F)c1`, the cell number change stood at 11.1%. Further, the AC50 under setting [1] is 0.092 µM [falling, full curve, poor fit]. Regarding `CN1/C(=C\C(=O)Nc2ccc(Cl)cc2)C(C)(C)c2ccccc21`, the cell number change is -23.6%. Further, the AC50 under setting [1] was 29.1 µM [falling, single point].

On to `Cc1cccc(NC(=O)CSCC(=O)Nc2cc(S(=O)(=O)N3CCOCC3)ccc2OC(C)C)c1`, for which the cell number change is -22.5%. As to `COCCn1c(C)cc(C(=O)CSc2nc(C)cc(C)c2C#N)c1C`, the cell number change was -7.8%. Also, the AC50 under setting [1] is 1.46 µM [rising, full curve].

Take `O=C(c1ccccc1)C1CCN(C(=O)c2ccco2)CC1`: the AC50 under setting [1] is 29.1 µM [rising, single point].

For `Cc1ccccc1C(=O)NCCc1nnc(SCC(=O)Nc2nc(-c3ccccc3)cs2)n1C`, the cell number change is -47%. For the same molecule, the AC50 under setting [2] was 11.6 µM [falling, partial curve, poor fit]. In addition, under setting [1], the AC50 was 10.3 µM [falling, partial curve]. Turning to `Cc1cccc(NC(=O)CNC(=O)c2sc3ccccc3c2Cl)n1`, the cell number change was 20.9%. Also, the AC50 under setting [1] was 9.2 µM [rising, partial curve]. As to `O=S(=O)(NCc1cc(-c2ccccc2)no1)c1ccccc1Cl`, the cell number change was -24.4%. Besides, the AC50 under setting [2] was 3.66 µM [rising, single point]. Regarding `C/C(=N\NC(=O)C1COc2ccccc2O1)c1ccc(C)o1` (centres undefined), the cell number change was determined as 42.2%. In addition, under setting [2], the AC50 was 29.1 µM [rising, single point]. As to `CSCCC(NC(=O)c1cccc(S(=O)(=O)N2CCOCC2)c1)c1nc2ccccc2[nH]1` (centres undefined), the cell number change was -13%. The AC50 under setting [1] was 29.1 µM [rising, single point].

Turning to `O=C(NCCOC(=O)c1ccccc1)c1ccccc1`, the cell number change is 16%.

On to `Cc1onc(-c2ccccc2Cl)c1C(=O)N1CCCC1`, for which the cell number change came out at 13.3%. Further, the AC50 under setting [1] was 16.4 µM [rising, single point]. Regarding `CCOCCCNc1nc2c(C)cccn2c(=O)c1/C=C1\SC(=S)N(C(C)CC)C1=O` (centres undefined), the AC50 under setting [1] was 0.366 µM [falling, full curve]. `C/C(=N\NC(=O)c1nc2ccccn2c1C)c1cccc([N+](=O)[O-])c1`: the cell number change was 4.05%. Further, the AC50 under setting [2] was 3.66 µM [rising, single point]. Moreover, the AC50 under setting [1] is 5.17 µM [rising, partial curve, poor fit].

Regarding `O=S(=O)(NCCc1c[nH]c2ccccc12)c1ccccc1`, the cell number change is 31.7%. Besides, the AC50 under setting [2] was 32.6 µM [rising, single point]. In the case of `CSc1nc2ccc(Br)cc2[nH]1`, the cell number change was -37.3%. Besides, the AC50 under setting [2] is 18.4 µM [falling, single point]. The AC50 under setting [1] is 16.4 µM [falling, partial curve, poor fit]. On to `CCc1ccc(N2CC(C(=O)NCC(C)(C)N3CCOCC3)CC2=O)cc1` (centres undefined), for which the cell number change is -8.56%. Besides, the AC50 under setting [1] was 0.291 µM [falling, full curve, poor fit].
